Source: PubChem BioAssay AID2685 (National Center for Advancing Translational Sciences (NCATS), 2010)
Among all 320,000 compounds or so, about 2,100 (0.66%) were called active. The inconclusive results got no clear call from the source; some entries with a clear call stand among them for comparison. Calls follow the shape of the dose curve; as a rule, active = well fitted inhibition curve with a large enough effect in the signal ratio, with a control signal flat (not every such curve was filed as active); inconclusive = small, poorly fitted or top-dose-only effect, or effect the other way, or a change in a side signal; inactive = flat fitted curve, though single readings scatter; the % refers to the signal ratio. Potencies of inconclusive entries are doubtful fits and often do not repeat.
% is scaled to controls: 0 for no effect and ±100 for the full control effect; potency is read from the fitted curve at half-maximal effect.

Experiment: qHTS Assay for Lipid Storage Modulators in Drosophila S3 Cells
Conditions: BODIPY lipid droplet fluorescence, 18-24 h, cells fed with added oleic acid; lipid storage change, negative = inhibition: at 46.1 µM (top of the series) unless noted
In short: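 Laser-scanning cytometry quantifies lipid droplet accumulation (500–530 nm total intensity; droplet/cell object ratio) in oleic acid-fed (400 uM added) Drosophila S3 cells treated with a concentration series. 20 uM Triacsin C defined 100% inhibition.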
For Cn1c(=O)c2c3c(sc2n2c(SCC(=O)c4ccccc4)nnc12)COC(C)(C)C3, the lipid storage change, negative = inhibition was inconclusive: -31.7%.
With O=C(COc1ccc(Br)cc1Br)NNC(=O)c1cccs1 the Potency was inconclusive: 18.4 µM [activator, single point].
In the case of COC(=O)Cc1ccc2oc(-c3cccnc3)nc2c1, the lipid storage change, negative = inhibition is reported as inconclusive: 5.5%.
In the case of CCSc1nc2ccccc2c(=O)n1C1CCOC(C)(C)C1 (stereo unspecified), the lipid storage change, negative = inhibition is reported as inconclusive: -4.06%.
With CC1=NCC(C)c2c1[nH]c1ccccc21 (stereo unspecified) the lipid storage change, negative = inhibition was inconclusive: -25.2%.
In the case of CC(Oc1ccccc1Cl)C(=O)N1CCOCC1 (stereo unspecified), the lipid storage change, negative = inhibition is reported as inconclusive: -4.87%.
For O=C(NCc1ccccc1Cl)C(=O)NCC1OCCN1S(=O)(=O)c1cccs1 (stereo unspecified), the lipid storage change, negative = inhibition was inconclusive: 0.672%.
For c1ccc(Oc2ccc(-c3ccnc4ncnn34)cc2)cc1, the lipid storage change, negative = inhibition was inconclusive: 34.6%.
For O=C(Nc1nnc(SCC(=O)N2CCCc3ccccc32)s1)c1cccc2ccccc12, the Potency was inconclusive: 0.0046 µM [falling, full curve, poor fit].
In the case of NS(=O)(=O)c1ccc(N/C=C/C(=O)c2ccc(Br)cc2)cc1, the lipid storage change, negative = inhibition is reported as inconclusive: 12%.
With Cc1ccc(S(=O)(=O)N2CCN(C(=O)COC(=O)c3ccc([N+](=O)[O-])o3)CC2)c(C)c1 the lipid storage change, negative = inhibition was inconclusive: 7.21%.
For CC(=O)C1=C(O)C(=O)N(c2cccc(Br)c2)C1c1ccccc1Cl (stereo unspecified), the lipid storage change, negative = inhibition was inconclusive: -57.2%.
In the case of Cc1ccn2c(=O)nc(SCC(=O)N3CCC(C)CC3)nc2c1, the lipid storage change, negative = inhibition is reported as “inconclusive”.
With Cc1ccc(C(C)C)c(OCCNC(=O)c2cncc(Br)c2)c1 the lipid storage change, negative = inhibition was inconclusive: -36.5%.
In the case of O=C(O)CSCC(=O)NCc1c(Cl)cccc1Oc1ccccc1, the lipid storage change, negative = inhibition is reported as inconclusive: -48.8%.
For Cc1ccc(S(=O)(=O)N(CC(=O)NCc2ccncc2)C2CCCCC2)cc1, the lipid storage change, negative = inhibition was inconclusive: 39.6%.
In the case of CC(C)NC(=O)c1ccc2c(=O)n(C3CCCC3)c(=S)[nH]c2c1, the lipid storage change, negative = inhibition is reported as inconclusive: 7.24%.
For O=C(Cn1cncc1-c1ccc([N+](=O)[O-])cc1)Nc1cccc2ccccc12, the lipid storage change, negative = inhibition was inconclusive: 19.8%.
For O=C(c1ccccc1)N1CCN(C(=O)c2cccnc2)CC1, the Potency was inconclusive: 6.51 µM [activator, single point].
In the case of CCN1C(=NCC2CC2)N[C@@H](c2cccc(C(F)(F)F)c2)C(C(=O)OC)=C1C, the Potency is reported as inconclusive: 6.51 µM [activator, single point].
For CCC1CN(S(=O)(=O)c2cc(-c3cc(C)no3)ccc2OC)c2cc(C)ccc2O1 (stereo unspecified), the Potency was inconclusive: 0.651 µM [falling, single point].
With O=C(NCCN1CCCCC1)c1ccc(=O)oc1 the lipid storage change, negative = inhibition was inconclusive: 1.28%.
With CCC(Oc1ccccc1C)C(=O)Nc1ccc(S(=O)(=O)Nc2cc(C)on2)cc1 (stereo unspecified) the lipid storage change, negative = inhibition was inconclusive: 45.3%.
With COC(=O)Cn1c(C(F)(F)F)nc2ccccc21 the lipid storage change, negative = inhibition was “inactive”.
For COc1ccccc1NC(=O)C1=C(C)N(c2ccccc2)C(=S)NC1c1cccc(C(F)(F)F)c1 (stereo unspecified), the Potency was inconclusive: 0.13 µM [activator, full curve, poor fit].
For CCOC(=O)c1c(C=O)c(C)n(Cc2ccccc2)c1C, the lipid storage change, negative = inhibition was inconclusive: 33%.
With CCOC(=O)[C@@H]1[C@H]2COc3ccccc3[C@@H]2N2C(=O)N(c3ccccc3)C(=O)[C@]12C the lipid storage change, negative = inhibition was inconclusive: 79.1%.
With COc1cccc(Nc2c(F)c(F)c(F)c(F)c2C(=O)O)c1 the lipid storage change, negative = inhibition was inconclusive: -21.2%.
With CC(C)(CNC(=O)CNC(=O)C1CCCCC1)N1CCOCC1 the lipid storage change, negative = inhibition was inconclusive: 188%.
With CCCCCOC(=O)CSc1nc2c(c(=O)[nH]c(=O)n2C)n1CCc1ccccc1 the lipid storage change, negative = inhibition was inconclusive: -13%.
With COCCCNC(=O)C1CCN(C(=O)c2cc3sccc3n2Cc2ccc(F)cc2)CC1 the lipid storage change, negative = inhibition was inconclusive: -7.87%.
In the case of Cc1nn(CCCC(=O)NCc2ccccc2Cl)c(=O)c2nccn12, the lipid storage change, negative = inhibition is reported as inconclusive: -4.04%.
For O=C(NNC(=S)NC(=O)c1ccccc1[N+](=O)[O-])c1ccc(Cl)cc1Cl, the lipid storage change, negative = inhibition was inconclusive: -11.1%.
In the case of CN(C)c1nc2c(c(N)nn2-c2ccc(Cl)cc2)c(=O)o1, the lipid storage change, negative = inhibition is reported as inconclusive: 87.1%.
With OC(COCc1ccc(Cl)cc1)CN1CCc2ccccc2C1 (stereo unspecified) the lipid storage change, negative = inhibition was inconclusive: 3.32%.
With CCn1c(SCc2ccc(C(=O)OC)o2)nnc1-c1c[nH]c2ccccc12 the lipid storage change, negative = inhibition was inconclusive: 64.6%.
For S=C(N/N=C/c1ccc(Cl)cc1)N1CCOCC1, the lipid storage change, negative = inhibition was inconclusive: 28.9%.
In the case of COCCSc1ccccc1C(=O)Nc1cc(C)cc(C)c1, the lipid storage change, negative = inhibition is reported as inconclusive: 9.33%.
For COc1cc(Cl)ccc1OCc1cc(C(=O)NCC(C)c2ccccc2)no1 (stereo unspecified), the Potency was inconclusive: 25.9 µM [activator, partial curve].
For CC(C)CNC(=O)N[C@@H](CC(C)C)C(=O)O, the lipid storage change, negative = inhibition was inconclusive: 0.753%.
With COC(=O)/C(=C1/Oc2ccc(C)cc2S1)C(F)(F)F the lipid storage change, negative = inhibition was inconclusive: 11%.
With O=[n+]1c2c(n([O-])c3cc(Br)ccc31)CCCC2 the lipid storage change, negative = inhibition was inconclusive: 0.612%.
In the case of Cc1c(Cl)cccc1N(CC(=O)O)S(C)(=O)=O, the Potency is reported as inconclusive: 29.1 µM [falling, single point].
For O=C(CSc1nnc2c(n1)[nH]c1ccccc12)NC1CCCCC1, the lipid storage change, negative = inhibition was inconclusive: 244%.
For COc1ccccc1NC(=O)NC1(C(=O)N2CCOCC2)CCCCC1, the lipid storage change, negative = inhibition was inconclusive: -5.58%.
With CCSc1nc(O)cc(=O)n1-c1ccc(OC)cc1 the Potency was inconclusive: 0.58 µM [falling, single point].
In the case of COc1ccc(C(=O)N2CCC(CCC(=O)Nc3cccc(C)c3)CC2)cc1, the lipid storage change, negative = inhibition is reported as inconclusive: -55.5%.
In the case of CN(C)c1ccc(/C=C/C(=O)c2ccc(O)cc2)cc1[N+](=O)[O-], the lipid storage change, negative = inhibition is reported as inconclusive: 7.07%.
In the case of COCCCN(CCNC(=O)c1ccc(NC2=NC3CS(=O)(=O)CC3S2)cc1)Cc1ccco1 (stereo unspecified), the lipid storage change, negative = inhibition is reported as inconclusive: 28.4%.
For Cc1[nH]c2ccc(F)cc2c(=O)c1SC(F)(F)C(F)F, the lipid storage change, negative = inhibition was inconclusive: -10.9%.
With COc1cc2c(cc1NC(=O)C(C)NCc1ccccc1)oc1ccccc12 (stereo unspecified) the lipid storage change, negative = inhibition was inconclusive: -27%.
In the case of Cc1csc(NC(=O)C2CCCCC2)n1, the Potency is reported as inconclusive: 25.9 µM [activator, single point].
In the case of Cc1csc(NC(=O)c2c(O)c3cccc4c3n(c2=O)CCC4)n1, the Potency is reported as inconclusive: 3.26 µM [activator, full curve].
For O=C(O)CSCC(=O)Nc1ccc(C(=O)O)cc1, the Potency was inconclusive: 23.1 µM [falling, single point].
With COc1ccccc1C(=O)COC(=O)CNS(=O)(=O)c1ccc(C)cc1 the lipid storage change, negative = inhibition was inconclusive: 65.9%.
With COc1ccc(C(=O)Nc2ccc(Cl)cc2C(=O)NCc2ccco2)cc1OC the lipid storage change, negative = inhibition was inconclusive: -2%.
For CN(C)c1ccc(/C=C/C(=O)c2cccc(Br)c2)cc1, the Potency was inconclusive: 29.1 µM [falling, single point].
With O=C(NCc1ccccn1)c1ccccc1-c1ccccc1 the lipid storage change, negative = inhibition was inconclusive: 14.2% [at 9.22 µM].
In the case of COC(=O)c1ccc(COc2ccc(F)cc2)o1, the lipid storage change, negative = inhibition is reported as inconclusive: -22.2%.
For CCOC(=O)c1cc(-c2ccccc2)sc1NC(=O)C(C)OC(=O)c1ccncc1 (stereo unspecified), the lipid storage change, negative = inhibition was inconclusive: 12.5%.
In the case of COc1cc(NC(=O)COc2ccccc2)ccc1NC(=O)c1ccco1, the lipid storage change, negative = inhibition is reported as inconclusive: -100%.
For CCc1ccccc1N(CC(=O)NCC1CCCO1)C(=O)CCC(=O)Nc1nccs1 (stereo unspecified), the lipid storage change, negative = inhibition was inconclusive: 10.6%.
For CCN(CC)CCn1c(=N)n(CC(=O)c2ccc(C)cc2)c2ccccc21, the lipid storage change, negative = inhibition was inconclusive: -53.7%.
With O=C(NCCCN1CCC(Cc2ccccc2)CC1)C1CCC(=O)N1C1CCCC1 (stereo unspecified) the lipid storage change, negative = inhibition was inconclusive: 14.8% [at 9.22 µM].
With CC(C)C(NC(=O)c1ccccc1)C(=O)N1CCN(C/C=C/c2ccccc2)CC1 (stereo unspecified) the lipid storage change, negative = inhibition was inconclusive: 5.9%.
With O=C(CNC(=O)C12CC3CC(CC(C3)C1)C2)OCc1ccc(F)cc1Cl the lipid storage change, negative = inhibition was inconclusive: -14.2%.
With CC1=CC(C)C2C(=O)N(CCC[N+](C)(C)C)C(=O)C2C1 (stereo unspecified) the lipid storage change, negative = inhibition was “inactive”.
In the case of CCOC(=O)CC(=O)Nc1ccc(C)cc1, the Potency is reported as inconclusive: 25.9 µM [activator, single point].
With COc1ccccc1NS(=O)(=O)c1cccc(C(=O)NCC(c2ccco2)N(C)C)c1 (stereo unspecified) the lipid storage change, negative = inhibition was inconclusive: 23.3% [at 0.0737 µM].
With CCc1ccc(NC(=O)[C@H](C)NC(=O)C2CCN(C(=O)[C@@H](N)Cc3ccccc3)CC2)cc1 the lipid storage change, negative = inhibition was inconclusive: -7.66%.
For N#C/C(=C/c1ccc(O)c(O)c1)C(=O)NCc1ccc(Cl)cc1, the Potency was inconclusive: 29.1 µM [falling, single point].
For COc1coc(C(O)C[N+](=O)[O-])cc1=O (stereo unspecified), the lipid storage change, negative = inhibition was inconclusive: -0.169%.
In the case of CCOc1ccc(C(C(=O)NC2CCCC2)N(CCCO)C(=O)c2ccc(-c3ccccc3)[nH]2)cc1 (stereo unspecified), the lipid storage change, negative = inhibition is reported as “inactive”.
With O=S(=O)(c1ccccc1F)N1CCN(c2nc(-c3cccnc3)nc3ccccc23)CC1 the lipid storage change, negative = inhibition was inconclusive: 5.4%.
For CN(C)CCN(C(=O)c1cccc2ccccc12)c1nc2cc3c(cc2s1)OCO3, the lipid storage change, negative = inhibition was inconclusive: 26.3%.
In the case of CC(C)C(=O)N1CCN(c2ccc([N+](=O)[O-])cc2Cl)CC1, the lipid storage change, negative = inhibition is reported as inconclusive: -34.2%.
In the case of COc1ccccc1C(c1nnnn1C(C)(C)C)N1CCCCCC1 (stereo unspecified), the lipid storage change, negative = inhibition is reported as inconclusive: 14.4%.
For CC1CCCN(C(C(=O)Nc2ccc3c(c2)OCO3)c2ccccc2)C1 (stereo unspecified), the lipid storage change, negative = inhibition was inconclusive: 34.7% [activator].
With COc1ccc(NC(=O)CSc2ccc3nnc(CCNC(=O)c4ccccc4)n3n2)cc1OC the lipid storage change, negative = inhibition was inconclusive: 97.2%.
For CCNC(=O)CCC(=O)Nc1cc(Cl)ccc1C, the Potency was inconclusive: 2.31 µM [activator, partial curve].
With CCCCCCSc1cccc(-c2nc3ccc(C)cn3c2NCc2ccccc2)c1 the Potency was inconclusive: 20.6 µM [falling, single point].
